Experimental data: PubChem BioAssay AID1259308 (NCATS, 2017)

Screen: 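Knock-downs that increase output of a recombinant reporter protein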 (primary screen)
System: human HEK293 embryonic kidney cells stably expressing firefly luciferase (HEK-CMV-Luc2-Hygro)
Reagent: single siRNA against human genes, 0.8 pmol siRNA per well
Timing: 72 h
Read-out: 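Luciferase light (ONE-Glo) measured on one replicate plate set and viability (CellTiter-Glo) on the other, scaled to a negative control siRNA, with robust z-scores and luciferase per cell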
Direction: total luciferase, z-score and total luciferase, % of control: higher = more reporter protein produced; luciferase per cell, z-score: higher = more reporter output per viable cell
Call rule: 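Active when the median/MAD z-score for overall luciferase is greater than 3; a gene was taken forward for validation with new siRNAs if at least two of its three siRNAs passed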
Meaning of the calls: active = raised luciferase; inactive = no rise
The deposit covers about 59,000 reagents; this is a random part of them. About 1,510 of all reagents (2.6%) were called active. 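Calls use total luciferase alone and ignore viability, so some active siRNAs may act by altering cell number.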 Unmarked entries are inactive. Reagents against one gene are numbered here. Further read-outs or replicates are left out here.

| gene | reagent no. | total luciferase, z-score | total luciferase, % of control | luciferase per cell, z-score |
| --- | --- | --- | --- | --- |
| RNF2 (ring finger protein 2) | 1 | -0.109 | 79.7 | -0.178 |
| RNF2 (ring finger protein 2) | 2 | -1.44 | 53.3 | -0.469 |
| RNF2 (ring finger protein 2) | 3 | 0.476 | 91.3 | 0.303 |
| CDK4 (cyclin dependent kinase 4) | 1 | 1.04 | 103 | 3.14 |
| CDK4 (cyclin dependent kinase 4) | 2 | -0.417 | 73.6 | -0.756 |
| CDK4 (cyclin dependent kinase 4) | 3 | -0.7 | 68 | -0.743 |
| ZNF431 (zinc finger protein 431) | 1 | -0.506 | 71.8 | -0.666 |
| ZNF431 (zinc finger protein 431) | 2 | 0.28 | 87.5 | 0.333 |
| ZNF431 (zinc finger protein 431) | 3 | 0.139 | 84.7 | 0.0156 |
| SNX4 (sorting nexin 4) | 1 | 1.07 | 103 | 0.803 |
| SNX4 (sorting nexin 4) | 2 | 0.819 | 98.2 | 0.691 |
| SNX4 (sorting nexin 4) | 3 | -0.087 | 80.2 | -0.059 |
| FAM117A (family with sequence similarity 117 member A) | 1 | -2.31 | 35.9 | -1.69 |
| FAM117A (family with sequence similarity 117 member A) | 2 | -1.44 | 53.3 | -1.7 |
| FAM117A (family with sequence similarity 117 member A) | 3 | 0.208 | 86 | -0.171 |
| MT1IP (metallothionein 1I, pseudogene) | 1 | 0.368 | 89.2 | 0.95 |
| MT1IP (metallothionein 1I, pseudogene) | 2 | 0.487 | 91.6 | 0.443 |
| MT1IP (metallothionein 1I, pseudogene) | 3 | 1.24 | 107 | 1.14 |
| PNPO (pyridoxamine 5'-phosphate oxidase) | 1 | 1.97 | 121 | 2.24 |
| PNPO (pyridoxamine 5'-phosphate oxidase) | 2 | 4.12 (active) | 164 | 1.98 |
| PNPO (pyridoxamine 5'-phosphate oxidase) | 3 | -0.804 | 65.9 | 2.52 |
| SPNS1 (SPNS lysolipid transporter 1, lysophospholipid) | 1 | 0.869 | 99.2 | 0.605 |
| SPNS1 (SPNS lysolipid transporter 1, lysophospholipid) | 2 | 5.03 (active) | 182 | 3.14 |
| SPNS1 (SPNS lysolipid transporter 1, lysophospholipid) | 3 | 0.03 | 82.5 | -0.57 |
| SKA2 (spindle and kinetochore associated complex subunit 2) | 1 | -0.541 | 71.1 | -0.422 |
| SKA2 (spindle and kinetochore associated complex subunit 2) | 2 | -0.693 | 68.1 | -0.891 |
| SKA2 (spindle and kinetochore associated complex subunit 2) | 3 | -1.07 | 60.6 | -1.08 |
| NUMB (NUMB endocytic adaptor protein) | 1 | -0.18 | 78.3 | -0.431 |
| NUMB (NUMB endocytic adaptor protein) | 2 | -0.361 | 74.7 | -0.781 |
| NUMB (NUMB endocytic adaptor protein) | 3 | 0.406 | 90 | 0.345 |
| ELOVL3 (ELOVL fatty acid elongase 3) | 1 | 0.263 | 87.1 | -0.23 |
| ELOVL3 (ELOVL fatty acid elongase 3) | 2 | -0.601 | 69.9 | -0.22 |
| ELOVL3 (ELOVL fatty acid elongase 3) | 3 | 2.25 | 127 | 1.53 |
| HYDIN (HYDIN axonemal central pair apparatus protein) | 1 | -0.314 | 75.6 | 1.15 |
| HYDIN (HYDIN axonemal central pair apparatus protein) | 2 | 0.12 | 84.3 | 0.539 |
| HYDIN (HYDIN axonemal central pair apparatus protein) | 3 | -1.08 | 60.4 | -0.324 |
| A4GALT (alpha 1,4-galactosyltransferase (P1PK blood group)) | 1 | -0.689 | 68.2 | -0.359 |
| A4GALT (alpha 1,4-galactosyltransferase (P1PK blood group)) | 2 | 0.241 | 86.7 | -0.0419 |
| A4GALT (alpha 1,4-galactosyltransferase (P1PK blood group)) | 3 | -0.781 | 66.3 | -0.96 |

Only “total luciferase, % of control” (3 entries from above):
NUMB (NUMB endocytic adaptor protein) #2: 74.7
NUMB (NUMB endocytic adaptor protein) #3: 90
ELOVL3 (ELOVL fatty acid elongase 3) #1: 87.1
